PubChem BioAssay AID743121, NCATS, 2013

Test: 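Genes whose silencing strengthens cell killing by camptothecin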 (primary screen)
Cells: MDA-MB-231 cells, a human breast cancer line
Reagents: single siRNA against human genes, 20 nM siRNA (0.8 pmol per well)
Time to read-out: 120 h (drug added 48 h after transfection, read 72 h later)
Conditions: camptothecin 20 nM (about EC30) for 72 h; vehicle 0.1% DMSO in parallel plates
Measurement: 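Cell viability by ATP luminescence (CellTiter-Glo) as % of non-targeting siRNA wells, and the log2 ratio of viability without drug over viability with camptothecin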
Scale: log2 vehicle/camptothecin viability: higher = stronger sensitisation to camptothecin; viability with camptothecin and viability without drug: higher = more viable cells
Call rule: 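Each gene scored by redundant siRNA activity (RSA) over its individual siRNA ratios; a gene is called active at p < 0.001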
Here is one part, drawn at random, of about 26,000 reagents. In the full data, 167 (0.63%) are marked active. 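Calls are per gene from RSA p-values that are not deposited; an individual active-marked siRNA can sensitise only weakly.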 Unmarked entries are inactive. Reagents against one gene are numbered here. No sequences are given here.

gene knocked down,reagent,log2 vehicle/camptothecin viability,viability with camptothecin (% of control),viability without drug (% of control)
CHRNB4 (GeneID 1143),1,-0.189,104,91.6
CHRNB4 (GeneID 1143),2,0.0124,33.8,34
CHRNB4 (GeneID 1143),3,0.18,73.4,83.2
CHRNB4 (GeneID 1143),4,0.142,84.8,93.6
PANK1 (GeneID 53354),1,-0.221,88.6,76
PANK1 (GeneID 53354),2,-0.378,83.2,64
PANK1 (GeneID 53354),3,0.48,44.2,61.7
PANK1 (GeneID 53354),4,-0.0877,91,85.6
STK33 (GeneID 65975),1,-0.456,37.6,27.4
STK33 (GeneID 65975),2,-0.155,30,26.9
STK33 (GeneID 65975),3,-0.0328,76.1,74.4
STK33 (GeneID 65975),4,-0.294,63.3,51.6
S1PR5 (GeneID 53637),1,0.545,51.8,75.6
S1PR5 (GeneID 53637),2,-0.0312,23.2,22.7
S1PR5 (GeneID 53637),3,0.807,45.8,80.1
S1PR5 (GeneID 53637),4,-0.32,95.6,76.6
TUSC2 (GeneID 11334),1,0.441,74,100
TUSC2 (GeneID 11334),2,-0.633,41,26.4
TUSC2 (GeneID 11334),3,-0.151,75.4,67.9
TUSC2 (GeneID 11334),4,-0.0391,89.5,87.1
ARNT2 (GeneID 9915),1,-0.232,66.8,56.9
ARNT2 (GeneID 9915),2,-0.435,86,63.6
ARNT2 (GeneID 9915),3,-0.24,74.3,62.9
ARNT2 (GeneID 9915),4,-0.107,45.4,42.2
ANAPC11 (GeneID 51529),1,-0.16,95.9,85.8
ANAPC11 (GeneID 51529),2,0.00131,97.4,97.5
ANAPC11 (GeneID 51529),3,0.115,75.4,81.7
ANAPC11 (GeneID 51529),4,0.0803,26.1,27.6
TAS2R1 (GeneID 50834),1,-0.195,98.6,86.1
TAS2R1 (GeneID 50834),2,0.0214,97,98.5
TAS2R1 (GeneID 50834),3,0.178,48.4,54.7
TAS2R1 (GeneID 50834),4,0.206,63.6,73.3
SMARCAL1 (GeneID 50485),1,-0.143,108,97.4
SMARCAL1 (GeneID 50485),2,-0.0403,79.4,77.2
SMARCAL1 (GeneID 50485),3,-0.456,79.3,57.8
SMARCAL1 (GeneID 50485),4,-0.0207,88.9,87.6
BPIFB4 (GeneID 149954),1,-0.0375,82.5,80.3
BPIFB4 (GeneID 149954),2,-0.169,115,102
BPIFB4 (GeneID 149954),3,0.00727,37.5,37.7
BPIFB4 (GeneID 149954),4,-0.121,83.2,76.5
ATRN (GeneID 8455),1,-0.173,74.4,66
ATRN (GeneID 8455),2,-0.299,93.9,76.3
ATRN (GeneID 8455),3,-0.112,68.6,63.5
ATRN (GeneID 8455),4,-0.318,44.3,35.5
RNF115 (GeneID 27246),1,-0.021,99.2,97.8
RNF115 (GeneID 27246),2,0.193,94.1,108
RNF115 (GeneID 27246),3,-0.0209,77.7,76.6
RNF115 (GeneID 27246),4,0.484,50.5,70.7
KCNH5 (GeneID 27133),1,-0.206,89.9,78
KCNH5 (GeneID 27133),2,-0.266,88.9,73.9
KCNH5 (GeneID 27133),3,-0.119,96.6,89
KCNH5 (GeneID 27133),4,0.458,65.5,89.9
CD209 (GeneID 30835),1,0.0416,42.2,43.4
CD209 (GeneID 30835),2,-0.17,41,36.4
CD209 (GeneID 30835),3,-0.22,101,86.7
ANO9 (GeneID 338440),1,2.35,2.39,12.1
ANO9 (GeneID 338440),2,-0.58,81.9,54.8
ANO9 (GeneID 338440),3,-0.453,72.1,52.7
ANO9 (GeneID 338440),4,0.0106,84,84.6
OR2C1 (GeneID 4993),1,0.525,13.2,19
OR2C1 (GeneID 4993),2,0.00334,88.5,88.7
OR2C1 (GeneID 4993),3,-0.234,109,92.8
OR2C1 (GeneID 4993),4,-0.596,70.4,46.6
LOC100134363 (retired record) (GeneID 100134363),1,0.208,69.5,80.2
JAG1 (GeneID 182),1,0.0088,102,103
JAG1 (GeneID 182),2,-0.0331,83,81.1
JAG1 (GeneID 182),3,-0.385,37.3,28.6
CHKA (GeneID 1119),1,-0.474,97.8,70.5
CHKA (GeneID 1119),2,-0.297,96.9,78.9
CHKA (GeneID 1119),3,-0.155,48.8,43.8
CHKA (GeneID 1119),4,-0.0679,90.2,86.1
TIMM8A (GeneID 1678),1,-0.318,81.3,65.2
TIMM8A (GeneID 1678),2,-0.323,55.6,44.5
TIMM8A (GeneID 1678),3,-0.206,39.2,34
TIMM8A (GeneID 1678),4,-0.216,83.6,72
HADHA (GeneID 3030),1,0.132,97.7,107
HADHA (GeneID 3030),2,-0.0622,88.2,84.5
HADHA (GeneID 3030),3,-0.301,73.1,59.3
HADHA (GeneID 3030),4,0.0326,54.2,55.5
TXNRD1 (GeneID 7296),1,-0.455,83.3,60.8
TXNRD1 (GeneID 7296),2,-0.179,56,49.5
TXNRD1 (GeneID 7296),3,-0.000268,106,106
TXNRD1 (GeneID 7296),4,0.242,71,84
SCNN1B (GeneID 6338),1,-0.663,69.2,43.7
SCNN1B (GeneID 6338),2,-0.366,82.4,64
SCNN1B (GeneID 6338),3,-0.21,87.9,76
SCNN1B (GeneID 6338),4,0.394,32.4,42.6

Only “log2 vehicle/camptothecin viability”, for 6 of the entries above:
ATRN (GeneID 8455) #2 = -0.299
ATRN (GeneID 8455) #3 = -0.112
ATRN (GeneID 8455) #4 = -0.318
RNF115 (GeneID 27246) #1 = -0.021
RNF115 (GeneID 27246) #2 = 0.193
RNF115 (GeneID 27246) #3 = -0.0209
